# Data taken from publication PMC7935965.
# These are yes or no findings as the source states them, for the method shown. In cells and extracts the contact can be indirect. Some entries that bind do so weakly or less than the wild type. For part of these data: Where a sequence is shown, tags or fusion partners need not be part of it.
# T1: Flag-RecQL4 (human) (UniProt O94761)
# T1 sequence: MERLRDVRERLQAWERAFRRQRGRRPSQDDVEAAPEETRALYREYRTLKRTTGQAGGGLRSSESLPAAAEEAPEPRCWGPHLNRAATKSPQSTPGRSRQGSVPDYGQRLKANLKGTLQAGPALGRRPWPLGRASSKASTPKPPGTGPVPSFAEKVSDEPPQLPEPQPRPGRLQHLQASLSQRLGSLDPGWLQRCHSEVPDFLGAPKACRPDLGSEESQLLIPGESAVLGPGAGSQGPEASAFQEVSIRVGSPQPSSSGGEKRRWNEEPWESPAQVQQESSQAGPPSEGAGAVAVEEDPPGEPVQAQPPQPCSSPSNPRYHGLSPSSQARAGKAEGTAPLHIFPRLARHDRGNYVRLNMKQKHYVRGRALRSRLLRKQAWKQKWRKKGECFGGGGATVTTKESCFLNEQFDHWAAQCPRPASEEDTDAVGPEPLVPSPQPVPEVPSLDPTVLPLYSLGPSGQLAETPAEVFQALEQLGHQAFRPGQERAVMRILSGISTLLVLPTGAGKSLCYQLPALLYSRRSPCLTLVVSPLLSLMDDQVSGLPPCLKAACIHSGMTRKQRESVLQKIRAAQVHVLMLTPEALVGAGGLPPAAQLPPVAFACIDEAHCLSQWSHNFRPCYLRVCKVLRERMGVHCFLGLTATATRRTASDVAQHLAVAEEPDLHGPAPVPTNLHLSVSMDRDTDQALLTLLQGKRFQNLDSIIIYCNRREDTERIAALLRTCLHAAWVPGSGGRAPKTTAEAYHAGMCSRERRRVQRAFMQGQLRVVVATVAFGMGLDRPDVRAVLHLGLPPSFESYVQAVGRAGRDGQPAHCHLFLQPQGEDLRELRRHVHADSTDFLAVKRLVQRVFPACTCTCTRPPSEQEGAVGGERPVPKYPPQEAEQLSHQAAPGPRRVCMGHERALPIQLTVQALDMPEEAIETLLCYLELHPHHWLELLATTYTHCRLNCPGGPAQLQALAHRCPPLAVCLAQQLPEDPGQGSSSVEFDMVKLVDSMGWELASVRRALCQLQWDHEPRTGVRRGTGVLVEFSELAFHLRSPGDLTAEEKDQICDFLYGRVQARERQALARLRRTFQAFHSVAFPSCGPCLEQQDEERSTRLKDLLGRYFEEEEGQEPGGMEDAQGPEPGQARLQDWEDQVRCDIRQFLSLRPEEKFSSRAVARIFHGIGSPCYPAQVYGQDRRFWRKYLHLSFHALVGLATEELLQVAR
# T2: endogenous RNF8 (human (endogenous in U2OS)) (UniProt O76064)
# T2 sequence: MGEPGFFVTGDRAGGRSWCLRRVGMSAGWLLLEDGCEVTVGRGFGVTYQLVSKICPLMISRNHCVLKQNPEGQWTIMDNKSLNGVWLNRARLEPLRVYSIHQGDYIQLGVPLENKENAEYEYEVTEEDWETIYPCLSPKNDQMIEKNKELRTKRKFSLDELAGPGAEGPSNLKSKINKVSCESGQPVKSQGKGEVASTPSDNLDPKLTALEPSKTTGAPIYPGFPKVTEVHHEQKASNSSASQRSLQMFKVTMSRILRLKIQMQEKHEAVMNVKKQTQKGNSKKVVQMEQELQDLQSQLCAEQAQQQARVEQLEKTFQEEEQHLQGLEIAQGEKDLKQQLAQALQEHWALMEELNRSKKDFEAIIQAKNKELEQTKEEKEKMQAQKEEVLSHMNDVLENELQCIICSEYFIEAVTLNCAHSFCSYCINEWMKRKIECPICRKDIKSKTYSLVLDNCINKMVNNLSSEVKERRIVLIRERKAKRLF
# T3: Flag-RNF8 (UniProt O76064)
# T3 sequence: T2 sequence
# T4: Flag-RecQL4-HD (human) (UniProt O94761)
# T4 sequence: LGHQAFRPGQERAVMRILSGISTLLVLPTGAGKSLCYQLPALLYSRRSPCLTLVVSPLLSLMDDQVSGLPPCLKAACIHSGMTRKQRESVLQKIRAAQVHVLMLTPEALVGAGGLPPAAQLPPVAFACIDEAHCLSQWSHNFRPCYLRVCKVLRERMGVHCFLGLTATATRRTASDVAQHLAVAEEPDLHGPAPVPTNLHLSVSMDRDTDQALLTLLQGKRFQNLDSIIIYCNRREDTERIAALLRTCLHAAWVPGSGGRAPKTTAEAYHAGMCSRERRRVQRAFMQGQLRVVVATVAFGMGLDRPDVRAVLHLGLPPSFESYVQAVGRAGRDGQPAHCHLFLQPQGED
# T5: Flag-RecQL4-NT (human) (UniProt O94761)
# T5 sequence: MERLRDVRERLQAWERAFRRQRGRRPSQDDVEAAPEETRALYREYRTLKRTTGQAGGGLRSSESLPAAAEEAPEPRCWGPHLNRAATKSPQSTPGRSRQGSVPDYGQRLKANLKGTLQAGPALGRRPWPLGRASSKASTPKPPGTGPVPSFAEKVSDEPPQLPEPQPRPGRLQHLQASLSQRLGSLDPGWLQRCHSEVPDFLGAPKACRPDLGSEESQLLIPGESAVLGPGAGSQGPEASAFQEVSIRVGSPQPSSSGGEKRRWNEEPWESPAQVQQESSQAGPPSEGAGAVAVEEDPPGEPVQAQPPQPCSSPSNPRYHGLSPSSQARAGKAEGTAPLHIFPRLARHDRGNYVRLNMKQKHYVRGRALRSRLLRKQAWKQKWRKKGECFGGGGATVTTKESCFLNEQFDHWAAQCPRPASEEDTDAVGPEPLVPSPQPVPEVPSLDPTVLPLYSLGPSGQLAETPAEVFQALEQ
# T6: Flag-RecQL4-CT (human) (UniProt O94761)
# T6 sequence: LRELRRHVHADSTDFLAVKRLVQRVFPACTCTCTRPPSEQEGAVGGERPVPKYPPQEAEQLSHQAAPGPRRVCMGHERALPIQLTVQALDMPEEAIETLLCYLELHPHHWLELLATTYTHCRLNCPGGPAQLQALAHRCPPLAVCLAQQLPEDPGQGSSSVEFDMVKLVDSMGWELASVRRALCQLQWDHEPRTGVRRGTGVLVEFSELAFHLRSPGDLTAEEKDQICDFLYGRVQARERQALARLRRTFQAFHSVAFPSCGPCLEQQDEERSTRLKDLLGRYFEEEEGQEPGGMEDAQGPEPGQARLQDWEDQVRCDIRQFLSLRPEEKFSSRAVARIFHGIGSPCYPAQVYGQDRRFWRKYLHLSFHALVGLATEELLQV
# B1: endogenous RNF8 (protein, UniProt O76064-1 1-485)
# chain: T2 sequence
# B2: endogenous RecQL4 (protein, UniProt O94761 1-1208)
# chain: T1 sequence
# B3: RNF8 (co-IP with the RecQL4 domains) (protein, UniProt O76064-1 1-485)
# chain: T2 sequence
# Experiments:
# Flag-RecQL4 (human) = biological target: T1, Flag-RecQL4 (human); assay: co-IP; anti-Flag (M2) immunoprecipitation from lysates of transfected U2OS cells, SDS-free buffer; western blot for the endogenous partner
# [1] = biological target: T2, endogenous RNF8 (human (endogenous in U2OS)); assay: co-IP; immunoprecipitation with anti-RNF8 antibody from U2OS lysate, both proteins endogenous; western blot with anti-RecQL4
# Flag-RNF8 = biological target: T3, Flag-RNF8; assay: co-IP; anti-Flag (M2) immunoprecipitation from lysates of transfected U2OS cells, SDS-free buffer; western blot for the endogenous partner
# Flag-RecQL4-HD (human) = biological target: T4, Flag-RecQL4-HD (human); assay: co-IP; Flag-tagged RecQL4 domains (NT, HD, CT) immunoprecipitated, western blot with anti-RNF8 antibody; cells not given
# Flag-RecQL4-NT (human) = biological target: T5, Flag-RecQL4-NT (human); assay: as above
# Flag-RecQL4-CT (human) = biological target: T6, Flag-RecQL4-CT (human); assay: as above
binder,measurement,setting,value
B1,binding,Flag-RecQL4 (human),binds
B2,binding,[1],binds
same,binding,Flag-RNF8,binds
B3,binding,Flag-RecQL4-HD (human),binds
same,binding,Flag-RecQL4-NT (human),binds
same,binding,Flag-RecQL4-CT (human),binds
